Reference: PubChem BioAssay AID1347423 (Functional Genomics Laboratory (NCATS/FGL), 2020)
Out of some 52,000 sequences screened, about 210 (0.4%) were called active.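 The calls were made as follows: active = gene whose silencing raises cell survival under the drug, median off-target-corrected z-score across its silencing RNAs 2 or more; inactive = the rest.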 Some of the results follow.

assay: Resistance to Poly (ADP-Ribose) Polymerase inhibitor: Gene Identification via Genome-wide siRNA Screen; details: mouse BRCA2 R2336H ES cells, olaparib, CellTiter-Glo viability; active compounds read high
In short: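 Mouse BRCA2 R2336H ES cells were reverse-transfected with siRNA (20 nM final), treated at 48 h with 500 nM olaparib, and read by CellTiter-Glo after 72 h. Scores: MAD-based z per siRNA, median per gene, seed off-target correction.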

Row | Sequence | z-score
1 | GCAGGGACCGUCUAUAACUTT against Ptprb | inactive: -0.654
2 | AUCUCGUCUUUGGUUAAUATT against V1rd11 | inactive: 1.3
3 | GGAAGCAAUGAUCAAUUAUTT against 4930511A21Rik | inactive: -0.586
4 | GGCUUUCAUUCUGCAGCUATT against Olfr1089 | inactive: -0.876
5 | GCUCAUCCAUUACGAGUUGTT against Dusp18 | inactive: 0.528
6 | GGAUGGGAACUACAUAAUUTT against 2310057J18Rik | inactive: -0.448
7 | GCUCCCUGUUCUUCACCAUTT against Ifitm1 | inactive: -0.399
8 | GUUGAGGAUAACAUUGAACTT against MGC102419 | inactive: -0.623
9 | GGACAUGCUUUCAAUGGAATT against Tshr | inactive: 0.716
10 | GCCUUCAACAAAAAGUUCUTT against Olfr137 | inactive: 0.0535
11 | GGAUUUGCCUACACAUAUGTT against Nqo1 | inactive: -0.198
12 | GGAUGCUCAAAAUCUACAATT against H2-M11 | inactive: -0.801
13 | GGAAUUUGGUGCAGUGUCCTT against AW544865 | inactive: -1.75
14 | CCUCUUUUUCUCCUAUUUUTT against Olfr1165 | inactive: -1.07
15 | GGAGUUUCUGUUUAACAUGTT against Hoxa9 | inactive: 1.44
16 | GGAAGUUGAAUACAUUGUCTT against Arntl | inactive: 0.0738
17 | GGAACACUGUGAGAACAAGTT against C230081A13Rik | inactive: -1.22
18 | GGCUUUCGACCAGUUUUUCTT against Hoxa11 | inactive: 0.0373
19 | GGCUCAUCAGAUGUAAACATT against 4931407K02Rik | inactive: 3.15
20 | GCUUUCUUAGCAUUAAAUCTT against Zfp307 | inactive: 0.81
21 | CGGCCUGUUAUAAACCUGCTT against 4933409K07Rik | inactive: -0.131
22 | CCUCUACUCAGGAAAUAAGTT against 1810043M15Rik | inactive: 1.21

Row | Sequence | z-score
23 | GCUCAUAAUUACAUCACCATT against Hist2h3c2 | inactive: -0.882
24 | GCCUCUUAUUAACUGAACGTT against BC061194 | inactive: -1.28
25 | CCCAUUACGCAAAUUGUUCTT against Rin3 | inactive: 0.956
26 | GGAUUUUGCCUAAAAUACATT against Sephs1 | inactive: -1.13
27 | GGGCCUUUUUAUCCAACUUTT against Mcts1 | inactive: -1.18
28 | GGAAGAAUCUUCCUGUUAATT against Chic2 | inactive: -1.62
29 | GGUUUCUGCAUGAAAAUCATT against Irak4 | inactive: -0.656
30 | CCCUAUCUUCAGGCCAUUGTT against LOC330776 | inactive: -1.97
31 | GGCAUAGAAGAGAUGACAGTT against Fabp7 | inactive: -0.762
32 | GGAGGAUUAUCACAAGUCCTT against Anxa6 | inactive: 0.307
33 | GGACUUAGCACCCUCCUAATT against Tnfsf15 | inactive: -1.93
34 | GCUACUAGUAUAUGUACUCTT against Psg28 | inactive: -0.408
35 | GGCAAAAUGGUUUUUUGUUTT against AI987662 | inactive: 0.237
36 | GGCCUUUCUAGAGCUGUGGTT against 5830482F20Rik | inactive: -1.44
37 | GGAGGUGCUGAAGUUCUACTT against Bckdha | inactive: -1.17
38 | GGUGACACCGCUCAUGAUCTT against Sephs2 | inactive: -0.485
39 | CCUGUUCAGAUUGUCAACATT against Ptov1 | inactive: 1.88
40 | CCCAACAAUCCAACAAUGATT against LOC432723 | inactive: 0.199
41 | GCAAUAGCCGGGAGAUAACTT against Itlnb | inactive: -0.128
42 | GGCAUAUCUGAGGUGAAUCTT against Sec23b | inactive: 0.481
43 | GGUUAUGAAUCUCAUCAGUTT against St13 | inactive: 0.273
44 | GCACUGCUGGCUAUUGGAATT against 2310061A22Rik | inactive: -1.24

Row | Sequence | z-score
45 | GGCACAUGGUUUCUGACCUTT against Bsf3 | inactive: -0.000555
46 | CCGUCUUAAUGGAUGAUUGTT against D630005C06Rik | inactive: 0.433
47 | GGAGAAGGUGGCCUUCUUUTT against Fbxo46 | inactive: 0.318
48 | GCAGACUCUUCCAAGUAAUTT against Lrrc28 | inactive: -0.785
49 | GCCAACUGGAUAAAUGUCATT against 2600001J17Rik | inactive: -0.741
50 | CGAACAGGAGAGCCUUAUUTT against H2-DMb2 | inactive: -2.43
51 | GGAAGCAUUCCAAUGGUAGTT against Cyp2c39 | inactive: -1.32
52 | CCUUCUUUCGCGUAUGCCUTT against Dll1 | inactive: 0.11
53 | CCAUAGGAACUUCUACUCCTT against 5330438E18Rik | inactive: -1.34
54 | GCUCCUGAUCAAAUAAAGUTT against Ldh2 | inactive: 0.209
55 | GGACUUGAUCAAUGGCUAUTT against BC030477 | inactive: 0.318
56 | GGGACUCUUCACUUGAAAUTT against Ccl3 | inactive: 0.335
57 | GGAUGUAACUGAAAGAGAATT against 5830415L20Rik | inactive: -0.688
58 | GGUCAAGUCAGCAUUCCUGTT against 1500019G21Rik | inactive: 0.436
59 | GGAUUGGAUCUUACAUGUCTT against Scnn1b | inactive: 0.623
60 | GGAGAGCAAUGGUCCAACATT against Clta | inactive: 1.09
61 | GCUGGCUAUACUUUACAACTT against Prkg1 | inactive: 0.164
62 | GGGAGCUAGAUAUCCGGAATT against 1500032D16Rik | inactive: -0.155
63 | GGAGAUCAAGGUGAUUUCGTT against Rs1h | inactive: -1.29
64 | GGUUUCUAUUCUACCUCCCTT against Ceacam14 | inactive: 0.0741
65 | GCACUUUCGUAGAUCACCATT against Bri3bp | inactive: 0.953
66 | GCAGCCUGUACAGUUCUAUTT against Gpr139 | inactive: 0.492

Given as comma-separated lines: entries from further up
Row,Sequence,z-score
47,GGAGAAGGUGGCCUUCUUUTT against Fbxo46,inactive: 0.318
48,GCAGACUCUUCCAAGUAAUTT against Lrrc28,inactive: -0.785
49,GCCAACUGGAUAAAUGUCATT against 2600001J17Rik,inactive: -0.741
51,GGAAGCAUUCCAAUGGUAGTT against Cyp2c39,inactive: -1.32
52,CCUUCUUUCGCGUAUGCCUTT against Dll1,inactive: 0.11
53,CCAUAGGAACUUCUACUCCTT against 5330438E18Rik,inactive: -1.34
58,GGUCAAGUCAGCAUUCCUGTT against 1500019G21Rik,inactive: 0.436
60,GGAGAGCAAUGGUCCAACATT against Clta,inactive: 1.09
62,GGGAGCUAGAUAUCCGGAATT against 1500032D16Rik,inactive: -0.155
63,GGAGAUCAAGGUGAUUUCGTT against Rs1h,inactive: -1.29
64,GGUUUCUAUUCUACCUCCCTT against Ceacam14,inactive: 0.0741
65,GCACUUUCGUAGAUCACCATT against Bri3bp,inactive: 0.953
66,GCAGCCUGUACAGUUCUAUTT against Gpr139,inactive: 0.492
